# Data as given in the M2OR odorant receptor database.
# Protein sequences, listed by entry. Tags and fused reporters are not part of them. Lines headed by an entry give the natural chain unless they say otherwise; changes in a name come on top.
# UniProt P0C7N5: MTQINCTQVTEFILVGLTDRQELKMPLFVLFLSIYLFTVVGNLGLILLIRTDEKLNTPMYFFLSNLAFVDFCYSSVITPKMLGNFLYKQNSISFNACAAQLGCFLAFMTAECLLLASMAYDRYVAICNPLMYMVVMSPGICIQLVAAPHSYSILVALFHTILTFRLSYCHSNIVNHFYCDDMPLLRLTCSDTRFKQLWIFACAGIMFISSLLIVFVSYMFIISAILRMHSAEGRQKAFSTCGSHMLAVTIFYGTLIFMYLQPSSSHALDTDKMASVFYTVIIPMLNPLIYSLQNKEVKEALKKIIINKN
# Substitutions are numbered along the chain they refer to. The entries are a selection whose mix differs from that of the whole data set. Calls are pooled over several reports, among them a noisy single-well screen. The list shows a part of the results.
# Columns and labels:
# Settings in all cases: stereoisomer not certain
# OR8K5 = system: T1, OR8K5
# T1 sequence (whole entry): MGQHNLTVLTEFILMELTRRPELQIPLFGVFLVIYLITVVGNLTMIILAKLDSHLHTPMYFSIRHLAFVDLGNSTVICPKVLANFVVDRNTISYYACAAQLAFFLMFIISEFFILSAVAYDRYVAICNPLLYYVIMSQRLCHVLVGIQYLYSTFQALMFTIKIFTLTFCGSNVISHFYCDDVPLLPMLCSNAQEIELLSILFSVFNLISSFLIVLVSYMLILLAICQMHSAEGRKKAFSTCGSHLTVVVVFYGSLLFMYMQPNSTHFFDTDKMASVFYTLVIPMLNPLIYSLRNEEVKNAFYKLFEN
# How it was run: (§1)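 Each entry records the cell line, G-protein, co-transfected protein and tags used. Methods varied with the source, often transient luciferase assays in mammalian cell lines. A receptor–molecule pair is called responsive (active) if the original authors judged its signal statistically different from baseline and non-responsive (inactive) otherwise.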
# OR8S1 = system: T2, OR8S1
# T2 sequence (whole entry): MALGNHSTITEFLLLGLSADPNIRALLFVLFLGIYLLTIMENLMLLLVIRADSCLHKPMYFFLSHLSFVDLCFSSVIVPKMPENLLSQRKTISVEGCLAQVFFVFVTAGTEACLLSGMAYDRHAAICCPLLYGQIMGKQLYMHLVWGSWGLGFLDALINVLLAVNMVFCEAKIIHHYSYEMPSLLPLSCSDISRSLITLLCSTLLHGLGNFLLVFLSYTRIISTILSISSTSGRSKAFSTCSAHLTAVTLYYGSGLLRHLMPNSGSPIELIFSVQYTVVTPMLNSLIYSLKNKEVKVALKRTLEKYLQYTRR
# How it was run: as §1
# OR8U1 = system: T3, OR8U1
# T3 sequence (whole entry): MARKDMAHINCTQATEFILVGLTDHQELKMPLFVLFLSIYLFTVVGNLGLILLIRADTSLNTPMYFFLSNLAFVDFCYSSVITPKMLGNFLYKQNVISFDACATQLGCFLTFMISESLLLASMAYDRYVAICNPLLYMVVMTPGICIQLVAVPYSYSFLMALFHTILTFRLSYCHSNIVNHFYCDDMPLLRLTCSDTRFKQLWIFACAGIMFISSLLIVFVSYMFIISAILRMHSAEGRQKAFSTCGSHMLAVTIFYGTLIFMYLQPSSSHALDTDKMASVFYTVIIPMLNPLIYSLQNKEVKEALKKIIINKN
# How it was run: as §1
# OR8U8 = system: T4, OR8U8
# T4 sequence (whole entry): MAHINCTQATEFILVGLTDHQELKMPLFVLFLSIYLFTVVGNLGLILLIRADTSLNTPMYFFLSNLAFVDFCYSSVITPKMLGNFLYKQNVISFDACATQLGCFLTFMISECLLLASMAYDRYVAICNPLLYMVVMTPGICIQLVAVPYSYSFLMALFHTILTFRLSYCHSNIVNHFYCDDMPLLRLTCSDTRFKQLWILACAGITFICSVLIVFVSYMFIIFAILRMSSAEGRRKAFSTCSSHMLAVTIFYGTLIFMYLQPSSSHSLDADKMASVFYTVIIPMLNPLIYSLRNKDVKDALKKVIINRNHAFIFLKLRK
# How it was run: as §1
# OR8K5 (Homo sapiens) = target: T5, OR8K5 (Homo sapiens) (UniProt Q8NH50)
# T5 sequence (whole entry): T1 sequence (whole entry) with A49T, V118M
# How it was run: as §1
# OR8U3 (Homo sapiens) = target: T6, OR8U3 (Homo sapiens) (UniProt Q8NH85)
# T6 sequence (whole entry): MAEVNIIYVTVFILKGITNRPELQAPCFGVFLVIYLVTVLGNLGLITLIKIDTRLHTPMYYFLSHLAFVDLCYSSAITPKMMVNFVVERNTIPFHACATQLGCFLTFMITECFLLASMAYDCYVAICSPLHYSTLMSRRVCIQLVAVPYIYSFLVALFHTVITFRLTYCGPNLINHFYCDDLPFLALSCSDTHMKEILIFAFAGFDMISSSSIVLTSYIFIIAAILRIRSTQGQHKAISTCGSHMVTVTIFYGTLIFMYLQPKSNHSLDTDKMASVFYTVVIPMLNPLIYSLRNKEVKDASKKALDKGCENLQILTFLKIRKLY
# How it was run: as §1
# OR8S1 (Homo sapiens) = OR8S1 (Homo sapiens) (UniProt Q8NH09)
# How it was run: as §1
# OR8U1 (Homo sapiens) = OR8U1 (Homo sapiens) (UniProt Q8NH10)
# How it was run: as §1
# OR8U8 (Homo sapiens) = OR8U8 (Homo sapiens) (UniProt P0C7N1)
# How it was run: as §1
# OR8U9 (Homo sapiens) = OR8U9 (Homo sapiens) (UniProt P0C7N5)
# How it was run: as §1
smiles,measurement,setting,value
CC(=O)C(C)=O,odorant receptor agonist call,OR8K5,inactive
same,odorant receptor agonist call,OR8S1,inactive
same,odorant receptor agonist call,OR8U1,inactive
same,odorant receptor agonist call,OR8U8,inactive
CC1COCc2cc3c(cc21)C(C)(C)C(C)C3(C)C (configuration not stated),odorant receptor agonist call,OR8K5,active
same,odorant receptor agonist call,OR8S1,active
same,odorant receptor agonist call,OR8U1,active
same,odorant receptor agonist call,OR8U8,active
CCCCCCOC(=O)CCC,odorant receptor agonist call,OR8K5,inactive
same,odorant receptor agonist call,OR8S1,inactive
same,odorant receptor agonist call,OR8U1,inactive
same,odorant receptor agonist call,OR8U8,inactive
C=CCc1ccc(OC(C)=O)c(OC)c1,odorant receptor agonist call,OR8K5,inactive
same,odorant receptor agonist call,OR8S1,inactive
same,odorant receptor agonist call,OR8U1,inactive
same,odorant receptor agonist call,OR8U8,inactive
COc1ccccc1O,odorant receptor agonist call,OR8K5,inactive
same,odorant receptor agonist call,OR8S1,inactive
same,odorant receptor agonist call,OR8U1,inactive
same,odorant receptor agonist call,OR8U8,inactive
c1ccc(Oc2ccccc2)cc1,odorant receptor agonist call,OR8K5,inactive
same,odorant receptor agonist call,OR8S1,inactive
same,odorant receptor agonist call,OR8U1,inactive
same,odorant receptor agonist call,OR8U8,inactive
COC(=O)c1ccccc1O,odorant receptor agonist call,OR8K5,inactive
same,odorant receptor agonist call,OR8S1,inactive
same,odorant receptor agonist call,OR8U1,inactive
same,odorant receptor agonist call,OR8U8,inactive
C=C(C)C1CC=C(C)C(=O)C1 (configuration not stated),odorant receptor agonist call,OR8K5 (Homo sapiens),active
same,odorant receptor agonist call,OR8U3 (Homo sapiens),active
CCCCCCCCCCC=O,odorant receptor agonist call,OR8K5,inactive
same,odorant receptor agonist call,OR8S1,inactive
same,odorant receptor agonist call,OR8U1,inactive
same,odorant receptor agonist call,OR8U8,inactive
CC12C=CCC1C1CCC3CC(=O)CCC3(C)C1CC2 (configuration not stated),odorant receptor agonist call,OR8K5 (Homo sapiens),inactive
same,odorant receptor agonist call,OR8K5,active
same,odorant receptor agonist call,OR8S1 (Homo sapiens),inactive
same,odorant receptor agonist call,OR8S1,inactive
same,odorant receptor agonist call,OR8U1 (Homo sapiens),inactive
same,odorant receptor agonist call,OR8U1,inactive
same,odorant receptor agonist call,OR8U3 (Homo sapiens),inactive
same,odorant receptor agonist call,OR8U8 (Homo sapiens),inactive
same,odorant receptor agonist call,OR8U8,inactive
same,odorant receptor agonist call,OR8U9 (Homo sapiens),inactive
COC(=O)c1ccccc1,odorant receptor agonist call,OR8K5,inactive
same,odorant receptor agonist call,OR8S1,inactive
same,odorant receptor agonist call,OR8U1,inactive
same,odorant receptor agonist call,OR8U8,inactive
CCCCCCCCOC(C)=O,odorant receptor agonist call,OR8K5,inactive
same,odorant receptor agonist call,OR8S1,inactive
same,odorant receptor agonist call,OR8U1,inactive
same,odorant receptor agonist call,OR8U8,inactive
CC1=NC(C)SC1C (configuration not stated),odorant receptor agonist call,OR8K5,inactive
same,odorant receptor agonist call,OR8S1,inactive
same,odorant receptor agonist call,OR8U1,inactive
same,odorant receptor agonist call,OR8U8,inactive
O=C1CCCCC1,odorant receptor agonist call,OR8K5,inactive
same,odorant receptor agonist call,OR8S1,inactive
same,odorant receptor agonist call,OR8U1,inactive
same,odorant receptor agonist call,OR8U8,inactive
CCC1(O)C2(C)CCC(C2)C1(C)C (configuration not stated),odorant receptor agonist call,OR8K5,inactive
same,odorant receptor agonist call,OR8S1,inactive
same,odorant receptor agonist call,OR8U1,inactive
same,odorant receptor agonist call,OR8U8,inactive
O=C1CCCCCCCCCCCC(=O)OCCO1,odorant receptor agonist call,OR8K5,inactive
same,odorant receptor agonist call,OR8S1,inactive
same,odorant receptor agonist call,OR8U1,inactive
same,odorant receptor agonist call,OR8U8,inactive
CC12CCC(C1)C(C)(C)C2=O (configuration not stated),odorant receptor agonist call,OR8K5,inactive
same,odorant receptor agonist call,OR8S1,inactive
same,odorant receptor agonist call,OR8U1,inactive
same,odorant receptor agonist call,OR8U8,inactive

# Exported with tabs: part of the list above
smiles	measurement	setting	value
c1ccc(Oc2ccccc2)cc1	odorant receptor agonist call	OR8S1	inactive
same	odorant receptor agonist call	OR8U1	inactive
same	odorant receptor agonist call	OR8U8	inactive
COC(=O)c1ccccc1O	odorant receptor agonist call	OR8K5	inactive
same	odorant receptor agonist call	OR8S1	inactive
same	odorant receptor agonist call	OR8U1	inactive
same	odorant receptor agonist call	OR8U8	inactive
C=C(C)C1CC=C(C)C(=O)C1 (configuration not stated)	odorant receptor agonist call	OR8K5 (Homo sapiens)	active
same	odorant receptor agonist call	OR8U3 (Homo sapiens)	active
CCCCCCCCCCC=O	odorant receptor agonist call	OR8K5	inactive
same	odorant receptor agonist call	OR8S1	inactive
same	odorant receptor agonist call	OR8U1	inactive
same	odorant receptor agonist call	OR8U8	inactive
CC12C=CCC1C1CCC3CC(=O)CCC3(C)C1CC2 (configuration not stated)	odorant receptor agonist call	OR8K5 (Homo sapiens)	inactive
